Data as given in PubChem BioAssay AID1159578 (Peter MacCallum Cancer Centre, 2015)

Test: 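Genome-wide hunt for genes controlling movement of lymphatic endothelial cells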 (primary screen)
Cell system: human lymphatic endothelial cells
Reagent: siRNA pool against human genes, 40 nM
Duration: 48 h after transfection
Detection: 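Cells stained with dye and imaged after a scratch; covered wound area and nuclei counted, duplicates averaged, migration set against mock wells and turned into a robust z-score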
Reading the numbers: migration robust z-score: higher = faster migration into the scratch; migration relative to mock: higher = more scratch area covered than mock; nuclei per well: higher = more cells in the well
Call rule: 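Migration changed when robust z exceeds 2 or falls below -2 and mean nuclei number is at least 3300; otherwise not called changed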
Calls: active = migration changed; inactive = no migration change, or too few cells
Shown is an unselected part of about 18,000 deposited reagents. In the full data, about 1,030 (5.7%) were called active. 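Inactive calls also include pools with fewer than 3300 nuclei, whose migration was not assessed.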 Raw values are not corrected between plates. Reagents against one gene are numbered here.

The first 3 entries, to show the layout:
gene	pool no.	migration robust z-score	migration class with cell-count check	migration relative to mock	nuclei per well, duplicate mean	outcome
C1QTNF9 (GeneID 338872)	1	0.28	migration z between -2 and 2; enough cells	0.96	5888	inactive
CYB5A (GeneID 1528)	1	-1.17	migration z between -2 and 2; enough cells	0.58	4854	inactive
SPHKAP (GeneID 80309)	1	-1.34	migration z between -2 and 2; enough cells	0.53	5036	inactive

The list itself, from the first entry:
gene	pool no.	migration robust z-score	migration class with cell-count check	migration relative to mock	nuclei per well, duplicate mean	outcome
C1QTNF9 (GeneID 338872)	1	0.28	migration z between -2 and 2; enough cells	0.96	5888	inactive
CYB5A (GeneID 1528)	1	-1.17	migration z between -2 and 2; enough cells	0.58	4854	inactive
SPHKAP (GeneID 80309)	1	-1.34	migration z between -2 and 2; enough cells	0.53	5036	inactive
SLC52A3 (GeneID 113278)	1	1.09	migration z between -2 and 2; enough cells	1.17	5636	inactive
DMC1 (GeneID 11144)	1	0.98	under 3300 nuclei; migration not judged	1	3158	inactive
MYO1B (GeneID 4430)	1	-0.76	migration z between -2 and 2; enough cells	0.68	5762	inactive
ADTRP (GeneID 84830)	1	-0.6	migration z between -2 and 2; enough cells	0.73	4662	inactive
PVALB (GeneID 5816)	1	-0.12	migration z between -2 and 2; enough cells	0.86	5902	inactive
TMEM14A (GeneID 28978)	1	-0.39	migration z between -2 and 2; enough cells	0.78	5214	inactive
CLEC17A (GeneID 388512)	1	-2	migration z between -2 and 2; enough cells	0.36	5340	inactive
C14orf119 (GeneID 55017)	1	0.26	migration z between -2 and 2; enough cells	0.96	7414	inactive
RASL12 (GeneID 51285)	1	-1.64	migration z between -2 and 2; enough cells	0.49	3442	inactive
LRATD1 (GeneID 151354)	1	-0.17	migration z between -2 and 2; enough cells	0.84	6816	inactive
CLEC1A (GeneID 51267)	1	2.1	migration z above 2; enough cells	1.21	5348	active
CENPQ (GeneID 55166)	1	-0.34	migration z between -2 and 2; enough cells	0.8	6466	inactive
CD40LG (GeneID 959)	1	-0.44	migration z between -2 and 2; enough cells	0.77	6426	inactive
EP400 (GeneID 57634)	1	-0.04	migration z between -2 and 2; enough cells	0.88	4582	inactive
DIPK2B (GeneID 79742)	1	-1.24	migration z between -2 and 2; enough cells	0.56	6143	inactive
CLPP (GeneID 8192)	1	-0.5	migration z between -2 and 2; enough cells	0.71	4684	inactive
DEFB112 (GeneID 245915)	1	0.02	migration z between -2 and 2; enough cells	0.89	4514	inactive
MRPS34 (GeneID 65993)	1	0.96	migration z between -2 and 2; enough cells	1.14	6584	inactive
OR5K1 (GeneID 26339)	1	-0.18	migration z between -2 and 2; enough cells	0.84	5816	inactive
ATP6V0A2 (GeneID 23545)	1	-0.19	migration z between -2 and 2; enough cells	0.84	6198	inactive
BDKRB2 (GeneID 624)	1	0.44	migration z between -2 and 2; enough cells	0.89	7628	inactive
RSAD2 (GeneID 91543)	1	-0.64	migration z between -2 and 2; enough cells	0.68	4026	inactive
SPINDOC (GeneID 144097)	1	-1.07	migration z between -2 and 2; enough cells	0.6	4760	inactive
ST6GAL1 (GeneID 6480)	1	-0.73	migration z between -2 and 2; enough cells	0.66	3906	inactive
PRAMEF7 (GeneID 441871)	1	-0.68	migration z between -2 and 2; enough cells	0.7	6444	inactive
SV2B (GeneID 9899)	1	1.61	migration z between -2 and 2; enough cells	1.12	4392	inactive
TRPS1 (GeneID 7227)	1	-0.96	migration z between -2 and 2; enough cells	0.62	5751	inactive
PDRG1 (GeneID 81572)	1	1.72	migration z between -2 and 2; enough cells	1.34	4850	inactive
C1QTNF5 (GeneID 114902)	1	-0.08	migration z between -2 and 2; enough cells	0.86	5686	inactive
SRPX (GeneID 8406)	1	0.91	migration z between -2 and 2; enough cells	1.12	5626	inactive
SMARCD2 (GeneID 6603)	1	0.86	migration z between -2 and 2; enough cells	0.97	5058	inactive
WASHC5 (GeneID 9897)	1	-0.31	migration z between -2 and 2; enough cells	0.8	6887	inactive
TTI2 (GeneID 80185)	1	0.37	migration z between -2 and 2; enough cells	0.98	5557	inactive
RNF113A (GeneID 7737)	1	-0.44	migration z between -2 and 2; enough cells	0.72	6043	inactive
RBM34 (GeneID 23029)	1	-1.03	migration z between -2 and 2; enough cells	0.61	6682	inactive
PPIH (GeneID 10465)	1	1.35	migration z between -2 and 2; enough cells	1.06	6278	inactive
LAIR1 (GeneID 3903)	1	0.62	migration z between -2 and 2; enough cells	0.92	6348	inactive
TSC22D2 (GeneID 9819)	1	-0.5	migration z between -2 and 2; enough cells	0.76	6266	inactive
MAGOHB (GeneID 55110)	1	1.71	migration z between -2 and 2; enough cells	1.34	6445	inactive
PTPN5 (GeneID 84867)	1	0.83	migration z between -2 and 2; enough cells	0.96	6114	inactive
SNX29 (GeneID 92017)	1	-1.21	migration z between -2 and 2; enough cells	0.57	6312	inactive
SNX29 (GeneID 92017)	2	0.02	migration z between -2 and 2; enough cells	0.88	6138	inactive
COPRS (GeneID 55352)	1	-0.68	migration z between -2 and 2; enough cells	0.71	5434	inactive
MTDH (GeneID 92140)	1	2.25	migration z above 2; enough cells	1.47	6670	active
XKR7 (GeneID 343702)	1	0.72	migration z between -2 and 2; enough cells	1.07	6354	inactive
LAMTOR2 (GeneID 28956)	1	-0.27	migration z between -2 and 2; enough cells	0.82	5515	inactive
RPS25 (GeneID 6230)	1	1.52	migration z between -2 and 2; enough cells	1.28	4714	inactive
OBSL1 (GeneID 23363)	1	-1.86	migration z between -2 and 2; enough cells	0.4	3962	inactive
ZNF510 (GeneID 22869)	1	0.3	migration z between -2 and 2; enough cells	0.96	5795	inactive
PAK3 (GeneID 5063)	1	-0.42	migration z between -2 and 2; enough cells	0.72	5358	inactive
PDE4C (GeneID 5143)	1	0.8	migration z between -2 and 2; enough cells	0.96	6825	inactive
SLC35A2 (GeneID 7355)	1	-1.17	migration z between -2 and 2; enough cells	0.58	4575	inactive
ZNF25 (GeneID 219749)	1	-0.01	migration z between -2 and 2; enough cells	0.88	6302	inactive
DNAJC10 (GeneID 54431)	1	-1.09	migration z between -2 and 2; enough cells	0.6	4674	inactive
